Values are the deposited “Percent Effect”, in %. The record does not define 0% and 100%; most values in the screen are far below 50% and negative numbers occur (in some assays of this library far below -100). Compounds were drawn at random from those tested, without regard to their results. A dash means the value is not listed here; it may have been measured.

Mtb growth Cornell: 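Whole-cell assay for inhibitors of Mycobacterium tuberculosis growth, labelled Cornell in the record; the read-out is not stated. The concentration is filed as 10 mM, unlikely as a test dose, so the dose is not known. Higher means stronger inhibition (inferred from two other growth screens of the library). About 53,000 compounds were tested under these conditions; 1.7% (about 900) showed 50% or more at least once.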
Mtb heat-shock: 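Assay on Mycobacterium tuberculosis, filed only as a heat shock assay from Cornell; the read-out is not stated. The concentration is filed as 10 mM, unlikely as a test dose, so the dose is not known. Direction is inferred from retests: higher values go with stronger inhibition. About 69,000 compounds were tested under these conditions; 1.4% (about 930) showed 50% or more at least once.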

Compound | Mtb growth Cornell | Mtb heat-shock
CN(Cc1ccccc1)C(=O)c1cc2c(c(S(N)(=O)=O)c1)CCC2 | 4.202 | -6.627
CN(c1nc(CSc2nnc(Cn3cncn3)o2)cs1)C1CC1 | -7.769 | 2.502
CC(=O)N1CCCC(c2ccc(Cc3ccccc3)cn2)C1 (centres undefined) | -14.27 | 45.88
COCCN(C)CC1CCCN1S(=O)(=O)c1cc(C)oc1C (centres undefined) | 5.776 | 0.4851
c1cc(CN2CCCC2c2noc(C3CC3)n2)on1 (centres undefined) | -61.35 | 0.5215
COCCNC(=O)c1cc(C(C)C)nc(N2CCCC2)n1 | - | -29.51
CSCCC(=O)N1CCN(CC(O)C(C)(C)C)CC1 (centres undefined) | - | -132.2
COCCOCC(=O)Nc1ccc(Br)cc1F | 2.637 | -21.39
CC(C)Oc1ncc(C(=O)N2CCC(N(C)C)CC2)cc1Cl | 24.42 | 8.959
CN(Cc1ccccc1)C(=O)CCN1CCC2(CC1)[C@H](O)C[C@@H]2O | 18.87 | -7.019
CCN1CCNC(=O)C12CCN(C(=O)Cc1ccccn1)CC2 | 13.45 | 2.903
N#Cc1cccc(CN2C(=O)C3(CCNCC3)Nc3ccccc32)c1 | - | -29.61
O=C(c1cncs1)N1CCC(c2cnccn2)CC1 | 7.442 | 1.842
O=C(NCC(=O)N1CCCC(c2ccccc2)CC1)c1ccoc1 (centres undefined) | - | -17.07
CCNC(=O)c1ncn2c1CN(C)S(=O)(=O)c1ccccc1-2 | 22.91 | 4.026
CCn1nnnc1-c1cccc(NC(=O)CCn2cc(C)cn2)c1 | - | -1.007
COc1cc(CN2CCCC2)ccc1OC12CCCN(CC1)C2 (centres undefined) | 6.74 | -26.73
Cc1nc(S(=O)(=O)N2CCc3[nH]nc(CCC(C)C)c3C2)cn1C | 5.518 | 9.341
COCCCNC(=O)CN(C)C(=O)c1cc(C)ccc1N(C)C(C)C | 13.79 | 22.02
Cc1ccc(N2CCCC(NCc3cnc(C)s3)C2)nn1 (centres undefined) | -53.89 | -16.72
Cc1noc(C)c1CSCc1nc(N)c2ccccc2n1 | 33.84 | -31.26
[H][C@@]12CNC[C@]1([H])N(Cc1cccc(C#N)c1)CCO2 | -12.72 | -11.54
O=C(Nc1ccccn1)c1ccc(F)c(S(=O)(=O)NC2CC2)c1 | 14.47 | -22.12
CC(=O)c1ccc(NC(=O)N(CCN(C)C)Cc2ccc(C)s2)cc1 | -0.9372 | -26.34
Cn1cccc1C(=O)Nc1cc(F)ccc1OCC1CCCO1 (centres undefined) | 30.9 | -38.8
CC(=O)N1CCC2(CC1)C(=O)N(C)c1c(F)cccc12 | 8.094 | 1.643
COc1ccc(F)cc1CSCC(=O)N(CCC#N)CCC#N | -72.5 | -19.38
CCS(=O)(=O)Cc1ccn(-c2cccc(F)c2)n1 | -8.901 | -11.8
COc1c(CNCc2ccnc(N3CCCCC3)c2)c(C)nn1C | -23.44 | -13
CC(C)(C)OC(=O)CNC(=O)CCc1nnc(-c2ccsc2)o1 | -15.05 | 17.46
COc1ccccc1C(=O)N1CCNCC1C(N)=O.Cl (centres undefined) | 18.95 | 5.705
CC(C)NC1CCc2[nH]c(=O)ccc2C1.O=C(O)C(F)(F)F (centres undefined) | 18.12 | 0.4821
CCc1nc(CSc2nnc(N)n2C2CC2)no1 | 7.781 | -3.544
CCCN(CCC)c1ncc(S(=O)(=O)c2ccccc2)c(N)n1 | 38.88 | -2.361
CN(C)C(=O)C1CCCN(C(=O)c2ccccc2-n2cc(CN)cn2)C1 (centres undefined) | -35.65 | -25.48
COc1ccc(-n2ccc(C(=O)N(C)C(C)C3(C)CC3)n2)cc1 (centres undefined) | 7.389 | 7.429
CC1CN(C(=O)c2ccn(-c3cccc(Cl)c3)n2)CCO1 (centres undefined) | 19.16 | -1.505
CC(NC(=O)CCCN(C)C)c1cn(-c2ccccc2)nn1 (centres undefined) | -35.03 | -8.828
Cc1nc(CN2CCN(C(C)c3nc(C4CC4)no3)CC2)oc1C (centres undefined) | - | -9.854
[H][C@@]12C[C@@H](Oc3cncnc3)CN1CCN(C(=O)c1ccco1)C2 | -27.83 | -53.75
CC(NC1(CNC(=O)NC2CC2)CCOCC1)c1ccccc1 (centres undefined) | - | 1.146
CCCc1nc(C(=O)NCCCn2nnc3ccccc32)cs1 | -9.588 | -29.01
O=C(COc1ccc(F)cc1F)N1CCOCC(O)(CN2CCCC2)C1 (centres undefined) | - | -6.279
Cc1cnc(N2Cc3nccn3CC(Cn3nc(C)nc3C)C2)nc1 (centres undefined) | -21.04 | -25.95
Cc1cccc2c1nc1n2[C@@H](CNC2CCCCC2)COC1 | -27.9 | -11.14
Cc1ccc(C(=O)N2CCc3ncnc(C)c3CC2)cn1 | -2.665 | -57.87
O=C(c1coc2ccccc12)N1CCS(=O)(=O)CC1 | 17.25 | -4.627
CCN1CCN(C(=O)Cn2ncc3c2c(C)nn3C(C)C)CC1 | 7.586 | -2.522
O=C(Cc1cccc(O)c1)NCCNc1nccc(C(F)(F)F)n1 | -29.85 | 5.5
Cc1nc(-c2cccnc2)ncc1C(=O)N1CCC(c2ncc[nH]2)CC1 | 6.56 | -38.98
COc1ccc(-c2nonc2N)cc1 | -12.37 | -7.593
Cc1nc(CN2C(=O)COC3(CCN(C(N)=O)CC3)C2C)cs1 (centres undefined) | 20.08 | -20.16
CN1CCN(Cc2cn3c(n2)CN(CC2CC2)CC3)CC1 | -11.73 | -12.63
O[C@H]1CN(CCCOc2ccccc2F)CC[C@@]12CCCO2 | 29.08 | -3.42
CS(=O)(=O)N[C@@H]1CCN(Cc2nccs2)[C@H]1Cc1ccncc1.O=C(O)C(F)(F)F.O=C(O)C(F)(F)F | 28.36 | -0.9762
Cc1nn(C)c2ncc(CNCCc3ccccn3)cc12 | -7.908 | 5.396
CSc1ccccc1CN1CCCn2nc(CNC(=O)N(C)C)cc2C1 | -5.33 | 16.19
[H][C@]12CNC[C@@]1(C(=O)NCc1nc(C)cc(C)n1)CN(C(=O)COC)C2 | -47.57 | 7.48
[H][C@@]12CCCN1C[C@H](Cc1ccccc1)N(Cc1cnn(C=C)c1C)C2 | -2.236 | -10.55
Cc1cc(C)n(CC2CN(CCc3ccncc3)CCO2)n1 (centres undefined) | 14.82 | -28.31
COc1ccccc1C1(C(=O)NCCN2CCCCC2)CCOCC1 | - | -10.71
CCOCCCNc1cc(C)nn2cnnc12 | - | -13.24
CC(=O)N1CCn2cc(CNC(=O)c3cccn3C)nc2C1 | - | 13.51
Cc1nn(CCc2nnc(NCC(C)C)s2)c(C)c1Br | 9.882 | 10.22
N#Cc1c(N2CCOCC2)nsc1-c1cccnc1 | 21.16 | -1.509
Cc1cnn(CC2CCCN2C(=O)CCc2ccco2)c1 (centres undefined) | - | 33.64
CN(C)c1nc2c(c(N(C)Cc3n[nH]c4c3CCCCC4)n1)CCNC2 | -7.282 | 76.86
COc1c(CNCC(=O)N2CCN(C)CC2)c(C(C)C)nn1C | -3.063 | 21.04
Cc1cc(F)ccc1S(=O)(=O)NCc1cccc(C(=O)N2CCCC2)c1 | - | -2.401
CC(C)(CO)Nc1c(NCc2ccccc2)c(=O)c1=O | 39.22 | 22.08
CCN(CC)C(=O)[C@@H]1C[C@@H](n2cc(-c3cccc(OC)c3)nn2)CN1 | 25.18 | -2.733
CCN1CCC2(CN(C(=O)N(C)C)CC23CCN(CC2CC2)CC3)C1=O.O=C(O)C(F)(F)F (centres undefined) | - | -20.46
Cc1cccc(CN(Cc2nc3c(cnn3C)c(=O)[nH]2)C2CC2)c1 | -30.86 | -3.821
O=C(Cc1ccsc1)N1CCCC(c2n[nH]c3ncccc23)C1 (centres undefined) | 4.203 | -8.173
CCNC(=O)NC(=O)CNC(C)(CC)c1nc(C)cs1 (centres undefined) | -1.13 | 16.58
N#Cc1cc2cc(Cl)cnc2nc1O | -34.37 | 12.42

For reference, 5 entries once more:

{"compound": "CC(C)Oc1ncc(C(=O)N2CCC(N(C)C)CC2)cc1Cl", "Mtb growth Cornell": 24.42, "Mtb heat-shock": 8.959}
{"compound": "COCCN(C)CC1CCCN1S(=O)(=O)c1cc(C)oc1C", "stereo": "centres undefined", "Mtb growth Cornell": 5.776, "Mtb heat-shock": 0.4851}
{"compound": "CCNC(=O)c1ncn2c1CN(C)S(=O)(=O)c1ccccc1-2", "Mtb growth Cornell": 22.91, "Mtb heat-shock": 4.026}
{"compound": "CCN1CCNC(=O)C12CCN(C(=O)Cc1ccccn1)CC2", "Mtb growth Cornell": 13.45, "Mtb heat-shock": 2.903}
{"compound": "CC(NC1(CNC(=O)NC2CC2)CCOCC1)c1ccccc1", "stereo": "centres undefined", "Mtb heat-shock": 1.146}

From ChEMBL document CHEMBL3988442, “University of Dundee, Small-Polar-MMV Screening Library” (2021).